# Test results from paper PMC9297664 (Arthritis Research & Therapy, 2022).
# Assay: peptide made by a vendor (Fmoc solid-phase peptide synthesis)
# Conditions: whole synthesis, reverse-phase C18 HPLC; mass confirmed by MALDI-TOF
substance,measurement,value
RRRR(NNRRR)3R,final HPLC purity,>95%
